The values that follow come from patent publication US11858934B1, “Substituted pyrido[4′,3′:5,6]pyrimido[1,2-a]indoles as CK2 inhibitors” (KING FAISAL UNIVERSITY, priority 2023, dated 2024).

Common to all, as to assay type: cell-based
For one experiment, the system named is H1299 (lung). The experiment can be described thus: MTT in vitro cytotoxic activity assay, H1299. The note with it: Homo sapiens, NCI-H1299; H1299 (lung) cells, exposed for 96 hours; read-out: IC50, 50% inhibition of cell proliferation. The procedure:
(§1) Compounds 1-12 were screened for their in vitro cytotoxic activity utilizing a 3-(4,5-dimethyl-thiazol-2-yl)-2,5-diphenyltetrazolium bromide (MTT) assay against selected cancer human cell lines consisting of PC3 (prostate), HCT116 (colon), A375 (melanoma), H1299 (lung), MIAPaCa-2 (pancreas), HL60 (leukemia), MCF7 (breast), MDA-MB-231 (breast) (T. Mosmann, J. Immunol. Meth., 1983, 65, 55-63). The cells were cultured at 37° C. in RMPI1640 medium supplemented with 10% fetal bovine serum, 50 IU/mL penicillin, and 50 μg/mL streptomycin in a 5% CO2 incubator. All cells were sub-cultured 3 times/week by trypsinisation. Viable cells were seeded and allowed to adhere for 12 h before a test drug was added in 96-well plates at an initial density of 1.0×10^5 cells/mL. Tumour cell lines were separately exposed to various concentrations of the tested compounds followed by incubation at a temperature of 37° C. during 96 h inside a medium of fresh RMPI 1640. Cells were subsequently incubated at 37° C. using MTT at 0.5 mg/mL during 4 h. After removal of supernatant, formazan crystals were dissolved in isopropanol and the optical density was measured at 570 nm. CX-4945 was used as a positive control.

A further experiment has as its system HL60 (leukemia). The experiment can be described thus: MTT in vitro cytotoxic activity assay, HL60. The note with it: Homo sapiens, HL-60; HL60 (leukemia) cells, exposed for 96 hours; read-out: IC50, 50% inhibition of cell proliferation. The procedure:
as §1

The test system of another experiment is MCF7 (breast). The experiment can be described thus: MTT in vitro cytotoxic activity assay, MCF7. The note with it: Homo sapiens; MCF7 (breast) cells, exposed for 96 hours; read-out: IC50, 50% inhibition of cell proliferation. The procedure: as §1
For the next experiment, the system named is A375 (melanoma). As to the kind of experiment: MTT in vitro cytotoxic activity assay, A375. The note with it: Homo sapiens, A-375; A375 (melanoma) cells, exposed for 96 hours; read-out: IC50, 50% inhibition of cell proliferation. The procedure: as §1
The subject of another experiment is MIAPaCa-2 (pancreas). As to the kind of experiment: MTT in vitro cytotoxic activity assay, MIAPaCa-2. Particulars: Homo sapiens, MIA PaCa-2; MIAPaCa-2 (pancreas) cells, exposed for 96 hours; read-out: IC50, 50% inhibition of cell proliferation. The procedure: as §1
In another experiment the test system is PC3 (prostate). The experiment can be described thus: MTT in vitro cytotoxic activity assay, PC3. Particulars: Homo sapiens, Prostate cell; PC3 (prostate) cells, exposed for 96 hours; read-out: IC50, 50% inhibition of cell proliferation. The procedure: as §1
Another experiment has as its system HCT116 (colon). As to the kind of experiment: MTT in vitro cytotoxic activity assay, HCT116. The note with it: Homo sapiens, HCT-116; HCT116 (colon) cells, exposed for 96 hours; read-out: IC50, 50% inhibition of cell proliferation. The procedure: as §1
A further experiment has as its system MDA-MB-231 (breast). The experiment can be described thus: MTT in vitro cytotoxic activity assay, MDA-MB-231. Particulars: Homo sapiens; MDA-MB-231 (breast) cells, exposed for 96 hours; read-out: IC50, 50% inhibition of cell proliferation. The procedure: as §1

On to `O=C(O)c1ccc2c(c1)nc(Nc1cccc(Cl)c1)c1ccncc12` [CX-4945, reference compound], for which the IC50 in the experiment with H1299 (lung) was found to be 2300 nM; in the experiment with HL60 (leukemia), 3.7 µM; in the experiment on MCF7 (breast), 9.1 µM; in the experiment with A375 (melanoma) it was 4.1 µM; with MIAPaCa-2 (pancreas), 1000 nM; in the experiment on PC3 (prostate), 2000 nM. For the same compound, the figures for the IC50 with HCT116 (colon) and with MDA-MB-231 (breast) were 2300 nM and 6.2 µM, respectively.
